Reference: patent publication US7585834B2 (The Board of Trustees of the Leland Stanford Junior …, priority 2001, dated 2009)

Assay: general procedure: Fmoc solid-phase peptide synthesis; HATU
Conditions: conjugation step, TFA salt

Question: Which conjugation yield does the source give for “Biotin-aminocaproic acid-r5-Cys(acyclovir)-CONH2” here?
Answer: Its conjugation yield is 36%.
